The values below come from the supplement of paper PMC6411743.

Test in all cases: NP40-soluble protein abundance relative to vehicle (solubility fold change) (ratio); higher = more soluble protein in presence of ATP
In one assay the target is T1, UAP1L1 (UniProt Q3KQV9).
T1 sequence (whole entry): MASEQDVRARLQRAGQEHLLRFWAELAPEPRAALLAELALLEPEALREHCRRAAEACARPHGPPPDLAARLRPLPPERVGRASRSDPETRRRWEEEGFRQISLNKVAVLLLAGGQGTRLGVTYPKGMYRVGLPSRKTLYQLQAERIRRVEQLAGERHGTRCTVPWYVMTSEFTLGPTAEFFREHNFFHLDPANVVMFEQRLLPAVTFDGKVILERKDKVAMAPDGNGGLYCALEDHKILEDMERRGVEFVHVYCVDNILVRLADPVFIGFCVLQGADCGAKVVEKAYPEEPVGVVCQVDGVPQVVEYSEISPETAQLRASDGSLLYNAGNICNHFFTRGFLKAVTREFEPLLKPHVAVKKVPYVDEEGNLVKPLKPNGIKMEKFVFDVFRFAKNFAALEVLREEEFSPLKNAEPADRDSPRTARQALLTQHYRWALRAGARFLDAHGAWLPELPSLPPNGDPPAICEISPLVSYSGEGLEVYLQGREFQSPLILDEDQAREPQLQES
The essentials: (§1)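 Data come from three independent experiments in which Dounce-homogenised Jurkat crude lysate was treated at eight concentrations from 0.1 to 10 mM. Treatment ran 10 min at room temperature and then 3 min at 37 °C, after which 0.8% NP40 and benzonase were added for 60 min at 4 °C before ultracentrifugation. The supernatant underwent TMT labelling and LC-MS/MS, and vsn-normalised intensities were expressed as fold change against the detergent-processed vehicle in each replicate.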

In another assay the target is T2, UniProt Q14444.
T2 sequence (whole entry): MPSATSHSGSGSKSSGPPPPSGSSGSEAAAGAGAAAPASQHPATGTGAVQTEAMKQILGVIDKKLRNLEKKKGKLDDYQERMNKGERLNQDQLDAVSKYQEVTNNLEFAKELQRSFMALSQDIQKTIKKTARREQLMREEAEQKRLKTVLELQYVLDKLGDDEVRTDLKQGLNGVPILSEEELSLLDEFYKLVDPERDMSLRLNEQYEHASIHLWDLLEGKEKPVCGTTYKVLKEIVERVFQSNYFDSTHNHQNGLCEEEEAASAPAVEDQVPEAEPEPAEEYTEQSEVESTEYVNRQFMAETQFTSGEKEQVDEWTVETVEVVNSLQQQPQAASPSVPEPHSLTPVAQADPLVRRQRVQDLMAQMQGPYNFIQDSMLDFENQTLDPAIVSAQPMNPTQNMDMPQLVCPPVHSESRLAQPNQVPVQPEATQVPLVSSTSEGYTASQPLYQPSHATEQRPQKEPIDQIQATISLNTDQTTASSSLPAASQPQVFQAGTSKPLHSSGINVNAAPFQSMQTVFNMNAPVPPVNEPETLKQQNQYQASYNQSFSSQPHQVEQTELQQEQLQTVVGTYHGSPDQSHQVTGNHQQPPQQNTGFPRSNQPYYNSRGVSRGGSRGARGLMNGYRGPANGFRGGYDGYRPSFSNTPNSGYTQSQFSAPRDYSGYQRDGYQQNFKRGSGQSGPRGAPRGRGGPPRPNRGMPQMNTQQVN
Put shortly:
as §1

Assay [1] deals with T3, UniProt Q14697 and related entries.
T3 sequence (whole entry): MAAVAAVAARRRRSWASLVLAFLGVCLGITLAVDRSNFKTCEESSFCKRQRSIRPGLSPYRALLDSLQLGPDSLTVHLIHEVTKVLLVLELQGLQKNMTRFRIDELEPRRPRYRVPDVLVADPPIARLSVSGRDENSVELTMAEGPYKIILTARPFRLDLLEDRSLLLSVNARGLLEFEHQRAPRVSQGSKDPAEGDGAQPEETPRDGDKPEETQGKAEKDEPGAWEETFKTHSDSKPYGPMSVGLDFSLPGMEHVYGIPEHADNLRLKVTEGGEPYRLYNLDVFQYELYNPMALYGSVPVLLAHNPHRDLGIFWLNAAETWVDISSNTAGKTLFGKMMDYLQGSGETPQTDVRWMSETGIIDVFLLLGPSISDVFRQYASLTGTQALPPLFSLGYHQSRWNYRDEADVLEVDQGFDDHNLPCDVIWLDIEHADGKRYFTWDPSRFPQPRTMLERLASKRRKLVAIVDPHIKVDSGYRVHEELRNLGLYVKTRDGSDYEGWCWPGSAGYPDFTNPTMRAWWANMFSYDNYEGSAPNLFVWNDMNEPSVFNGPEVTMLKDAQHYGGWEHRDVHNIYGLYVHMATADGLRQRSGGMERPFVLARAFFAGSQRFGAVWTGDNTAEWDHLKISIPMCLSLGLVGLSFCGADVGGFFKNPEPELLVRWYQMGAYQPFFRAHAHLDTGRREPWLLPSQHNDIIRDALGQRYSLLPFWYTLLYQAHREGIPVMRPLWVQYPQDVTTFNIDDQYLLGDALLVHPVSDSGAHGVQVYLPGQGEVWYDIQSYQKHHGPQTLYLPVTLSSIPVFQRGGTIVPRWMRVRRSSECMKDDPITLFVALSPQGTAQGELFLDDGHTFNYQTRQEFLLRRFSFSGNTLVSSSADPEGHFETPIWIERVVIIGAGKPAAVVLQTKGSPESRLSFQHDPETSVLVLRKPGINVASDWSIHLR
The essentials: as §1

The target of a further assay is T4, UniProt Q15067-2.
T4 sequence (whole entry): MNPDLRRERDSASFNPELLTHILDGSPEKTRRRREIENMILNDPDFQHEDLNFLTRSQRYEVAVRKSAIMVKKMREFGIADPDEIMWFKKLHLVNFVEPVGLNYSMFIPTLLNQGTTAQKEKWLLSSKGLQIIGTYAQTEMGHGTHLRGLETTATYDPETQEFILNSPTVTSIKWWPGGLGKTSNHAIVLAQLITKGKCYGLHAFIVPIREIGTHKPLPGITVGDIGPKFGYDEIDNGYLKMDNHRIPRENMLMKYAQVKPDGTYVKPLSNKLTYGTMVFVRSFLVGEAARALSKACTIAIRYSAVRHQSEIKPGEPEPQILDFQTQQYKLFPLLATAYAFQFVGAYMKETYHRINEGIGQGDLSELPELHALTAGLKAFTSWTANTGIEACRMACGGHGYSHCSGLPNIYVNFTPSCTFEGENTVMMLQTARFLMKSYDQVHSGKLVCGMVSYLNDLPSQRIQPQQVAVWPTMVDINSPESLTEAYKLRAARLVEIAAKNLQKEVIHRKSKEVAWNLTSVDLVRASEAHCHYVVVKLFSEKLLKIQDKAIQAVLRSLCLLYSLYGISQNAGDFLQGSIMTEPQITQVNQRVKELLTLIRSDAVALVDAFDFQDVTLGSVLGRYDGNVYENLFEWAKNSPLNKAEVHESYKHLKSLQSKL
Put shortly:
as §1

Molecules are shown by their SMILES. ± gives the standard deviation of the averaged measurements. The entries are a selection whose mix differs from that of the whole data set.

For the compound `Nc1ncnc2c1ncn2[C@@H]1O[C@H](COP(=O)(O)OP(=O)(O)OP(=O)(O)O)[C@@H](O)[C@H]1O` [adenosine triphosphate], the NP40-soluble protein abundance with UAP1L1 (concentration: 1mM) was found to be 0.988 ± 0.073; with UAP1L1 (concentration: 2mM), 1.05 ± 0.052; in the assay with UAP1L1 (concentration: 4mM), 1.01 ± 0.044; in the assay with UAP1L1 (concentration: 6mM), 1.02 ± 0.092; with UAP1L1 (concentration: 8mM) it was 0.968 ± 0.038; in the assay with UAP1L1 (concentration: 10mM), 1.07 ± 0.071. Further, the NP40-soluble protein abundance with UniProt Q14444 (concentration: 1mM) was 1.07 ± 0.072; in the assay with UniProt Q14444 (concentration: 2mM), 1.08 ± 0.015; in the assay with UniProt Q14444 (concentration: 4mM) it was 1.09 ± 0.034; with UniProt Q14444 (concentration: 6mM), 1.18 ± 0.038; in the assay with UniProt Q14444 (concentration: 8mM), 1.12 ± 0.037; with UniProt Q14444 (concentration: 10mM) it was 1.1 ± 0.052. The NP40-soluble protein abundance was 0.994 ± 0.083 in assay [1] (concentration: 1mM); 0.948 ± 0.076 in assay [1] (concentration: 2mM); 0.948 ± 0.069 in assay [1] (concentration: 4mM); 0.913 ± 0.11 in assay [1] (concentration: 6mM); 0.977 ± 0.051 in assay [1] (concentration: 8mM); 0.944 ± 0.059 in assay [1] (concentration: 10mM). The NP40-soluble protein abundance with UniProt Q15067-2 (concentration: 1mM) turned out to be 1 ± 0.081; with UniProt Q15067-2 (concentration: 2mM), 0.988 ± 0.072; in the assay with UniProt Q15067-2 (concentration: 4mM), 0.952 ± 0.046; with UniProt Q15067-2 (concentration: 6mM), 0.909 ± 0.082; in the assay with UniProt Q15067-2 (concentration: 8mM) it was 0.969 ± 0.031; with UniProt Q15067-2 (concentration: 10mM), 0.975 ± 0.073.
